Results are given in words; binding and its absence hold for the method and conditions named. Binding seen in cells or lysates may run through a third protein. For some of these results: Binding calls can cover weak binding; strength is not graded here. For some of these results: Where a sequence is shown, tags or fusion partners need not be part of it. Blank lines part the entries; values can stand above or below the binder they belong to.
How the values were obtained:
[1] = biological target: HF‐mScarlet‐DCP1 (Arabidopsis thaliana); assay: proximity ligation; quantitative 3D PLA (Duolink) on fixed Arabidopsis roots with antibodies against the tags (α‐FLAG/α‐GFP or α‐GFP/α‐RFP); PLA spots per cell
[2] = biological target: HF‐mScarlet‐DCP1 (Arabidopsis thaliana); assay: FRET or BRET; sensitized emission FRET (SE‐FRET) in live Arabidopsis root cells (mainly epidermis, root regions 1–3)
[3] = biological target: cYFP‐DCP1 (Arabidopsis thaliana); assay: split reporter; BiFC (nYFP/cYFP) by transient expression in N. benthamiana leaves; YFP signal intensity and YFP-positive puncta per cell by confocal microscopy
[4] = biological target: DCP1‐GFP (Arabidopsis thaliana); assay: FRET or BRET; acceptor photobleaching FRET in Arabidopsis root epidermal cells (regions 1 and 3)
[5] = biological target: DCP1‐GFP (Arabidopsis thaliana); assay: FRET or BRET; sensitized emission FRET (SE‐FRET) in live Arabidopsis root cells (mainly epidermis, root regions 1–3)
[6] = biological target: DCP1^S237A‐GFP (Arabidopsis thaliana); assay: as above
[7] = biological target: DCP1‐GFP (Arabidopsis thaliana); assay: proximity ligation; quantitative 3D PLA (Duolink) on fixed Arabidopsis roots with antibodies against the tags (α‐FLAG/α‐GFP or α‐GFP/α‐RFP); PLA spots per cell

- binding [1]: no binding
B1: SOK3‐YFP (protein, UniProt Q8GYT8 1-540)
chain: MEARMKKYSREVSPERAKVWTEKSPKYHQKIKKVQIVYYLSKNRQLEHPHFMEVLISSPNGLYLRDVIERLNVLRGRGMASMYSWSSKRSYRNGFVWHDLSEDDLILPANGNEYVLKGSELFDESNSDHFSPIVNLATQNMKQIVVEPPSSRSMDDSSSSSSMNNGKGTNKHSHEDDELSPPALRSVSSSGVSPDSRDAKNSSSWCLAEYKVYKSEGLADASTQTDETVSGRSKTPIETFSRGVSTDEDVSSEPETSENNLVSEASCAGKERESAEISRNSVSPPFSNSASSLGGKTDTLESLIRADVSKMNSFRILEQEDVRMPAIPRLRASNMLMQLISCGSISVKDNNFGLVPTYKPKFGHSKFPSPFFSSSFMMGDLDRLSETPSLMGLRMEEKEYFSGSLVETKLQKKDAADSNASLKRSSSYNGDRASNQMGVAENGDSKPDSSKNNPSSRKASSILGKQQPLVSEKRRDSSEDTTKNIPCTTKTHDACSKRITESLRKPDSFREDEERVIKIDERLASGARVRIESKVPSEEP

B2: PAT1‐GFP (protein, UniProt Q0WPK4 1-793)
chain: MDAFGIGSSLNQAPVTQDLKKFGDNSTGNTMFDASQYAFFGNDVVEEVELGGLEEEDEILSFTGIAEDFSFDKEEVGDSRLLSDVDDLASTFSKLNREPDVYSNTGPITDRRSSQNSLAAEWTHGEELPNWYGRQILDSDAIKDDKVWSAQPFSSLDRVEQRIPDRTKLYPEPQRQLHQDHNQQQFSSEPILVPKSSFVSYPPPGSISPDQRLGHPNIPYQSGGPQMGSPNFSPFPNLQPQLPSMHHGSPQHTGNRPQFRPALPLNNLPPAQWMNRQNMHPGDSSGIMNNAMLQQPPHQNGLMPPQMQGSQNRLPHPMQPPLGHMPGMQPQLFNSHLSRSSSSGNYDGMLGFGDLREVRPGSGHGNRQNVRFPQQGFDAGVQRRYPFRSKYMSAGEIENILRMQLVATHSNDPYVDDYYHQACLAKKSAGAKLKHHFCPNHLRDLQQRARSNNEPHAFLQVEALGRVPFSSIRRPRPLLEVDPPNSAKFGNAEHKPTDKPLDQEPMLAARVYIEDGLCLLLEVDDIDRFLEFNQLQDGGHQLKQRRQALLQSLAVSLQLGDPLAKNGQSQSLDDFLFLRVISLPKGRKLLIRYLQLIFPGSDLMRIVCMAIFRHLRSLFGVLSSDPDIIKTTNKLATVINLCIQNMELGPVSTCLAAVSCSSEQAPLRPLGSPVGDGASTVLKSILDRASELIRANNFNNAGIALWRASFNEFFNMLMRYCISKYDSIMQSLQLPPHFATEISEEAAKAIVREMPIELLRSSFPHIDEQQKRILMEFLKRSMLGSQKTEPVLS
- binding [2]: binds weakly

- binding [3]: binds
B3: pSITE17 (cYFP‐GW)‐FLXL1 (protein, UniProt Q93V84 1-331)
chain: MSGRNRGPPPPSMKGGSYSGLQAPVHQPPFVRGLGGGPVPPPPHPSMIDDSREPQFRVDARGLPPQFSILEDRLAAQNQDVQGLLADNQRLAATHVALKQELEVAQHELQRIMHYIDSLRAEEEIMMREMYDKSMRSEMELREVDAMRAEIQKIRADIKEFTSGRQELTSQVHLMTQDLARLTADLQQIPTLTAEIENTKQELQRARAAIDYEKKGYAENYEHGKIMEHKLVAMARELEKLRAEIANSETSAYANGPVGNPGGVAYGGGYGNPEAGYPVNPYQPNYTMNPAQTGVVGYYPPPYGPQAAWAGGYDPQQQQQQQPPPQGQGHR

- binding [4]: binds
- binding [7]: binds
B4: SCAR2‐mCherry (protein, UniProt Q5XPJ9 1-1399)
chain: MPLTRYQSRNEYGLADPDLYQAADKDDPEALLEGVAMAGLVGILRQLGDLAEFAAEMFHDLHEEVMATASRSHGLMARVQQLEAEFPSIEKALLCQTDHSPFFSNKGVEWHPNLQLEQSVVTSGDLPRCVMDSYEECRGPPRLFLLDKFDISGAGACLKRYTDPSFVRLETSSYEESWDDIQREKKSQKAKRRASQWRNGGTPENALSSHAKLHELFLEEHLEAHHSDPARVVKLKTRKLDGCSLISKSGESYMEKFVQTRVDSKISYEIITQNPGLLTWNMDSARDVVTDIPEISMVGAMDKSHGGSRAEVSFPSEQENVANVNMNGGFIEKDIETVPESTYNEVRGTTITQDSQTVLNGKPGFFQQRSYSEDLTSEADNYVDAPATMESETETDDECRPKSRSDTLKDGNHHIYSDAVEERMEDPPQFSFSHSNGNTPVSENGRSSFGKKSTSYSYSDTASISIDDQSDGEKLSGCLPSTSSFKSELVDSMSHVTPEANKVSHDLNVQESVSSSNVDGQTSLSSNGTCSSPRPVSQNDQSCSLTVQSLASEVVETSPELVRLDLMKGGNDGRKVDPFDSSKSCASFDAKNSDLPSETSSISSTSEGSRCDSTIEKNCMVASNLVNSGTSPQAFVDSQTGKQLPIADTDFETNSIVACSEVLANSGSDPEERDGRCLTGKLVPCSAGVGMEVSPDTPSKVCGPSSADGIHLKDTLDDETDCVSVTNVVVDVDSKNSVADVGSQSSVADIDSQSSVAEISDEHSCAFGNTADVSVSESHEDTLENGMSVPSDFNSGVEKLAGDASPTCSKCDDHISHEGFHDLSGLDNATTDIVPNVELDVSDNDNDTSSGGVNHAVSLSSTRGKGSLPWISTNTYQSSSDAGEIFHDTVVESDGTLLEDNNPESEIKMHKSPLEVSSEGLSTEPDNKDVESIESTSPKPSLDQRNRDTETKSPGESILDDNCIDSTQVYNLNLLESEAIDQAVREQTSYASHEVADEELLQSNVFRGLEFEPQSAGLEFAPQSAGIELNRPKQELNLDPTFPSFGFIPETIPPNPEDMPPLPPMQWLIGKVPHSFPTFMGESVETSSSALSAAPPIGSSLNVQIGSPPSELSVSLGSDESERLPGGFVHNASEKPLQSSIQFPTMSTDLNSQYDSSELPTIPYQECIEDFGSEENNLLADHAAQNHELVYSQASSLQLPQVKHEDFKDDADVHESQSSSDDHHCPETKSLTPTQSTKVEDKGHSVPDASNAETAESSNTSVQKINPVSVGDAMWPVSCFSVAPTLDTYKTEVVPTVRLPRPRSPLVDAVAAHDRRKMKKVSEMVHPPIKSKQDDKDSLLAQIRNKSVNLKPAVTTRPSIQTGPRTDLRVAAILEKANTIRMAMAGSDEDEDSDSWSDS
- binding [5]: binds
- binding [6]: binds

- binding [3]: binds
B5: pSITE17 (cYFP‐GW)‐RH12 (protein, UniProt Q9M2E0 1-498)
chain: MNTNRGRYPPGVGTGRGAPPNPDYHQSYRQQQPPQDQQYVQRGYSQNPQQMQLQQQHQQQQQQQQWSRRPQLPGNASNANEVVQQTTQPEASSDANGQDWKATLRLPPPDTRYQTADVTATKGNEFEDYFLKRDLLKGIYEKGFEKPSPIQEESIPIALTGSDILARAKNGTGKTGAFCIPVLEKIDPNNNVIQAMILVPTRELALQTSQVCKELSKYLNIQVMVTTGGTSLRDDIMRLHQPVHLLVGTPGRILDLTKKGVCVLKDCAMLVMDEADKLLSAEFQPSLEELIQFLPQNRQFLMFSATFPVTVKAFKDRHLRKPYVINLMDQLTLMGVTQYYAFVEERQKVHCLNTLFSKLQINQSIIFCNSVNRVELLAKKITELGYSCFYIHAKMVQDHRNRVFHEFRNGACRNLVCTDLFTRGIDIQAVNVVINFDFPRTSESYLHRVGRSGRFGHLGLAVNLVTYEDRFKMYQTEQELGTEIKPIPSNIDQAIYCQ

- binding [4]: binds
- binding [7]: binds
B6: BRK1‐mRuby (protein, UniProt Q94JY4 1-85)
chain: MAKAGGITNAVNVGIAVQADWENREFISHISLNVRRLFEFLVQFESTTKSKLASLNEKLDLLERRLEMLEVQVSTATANPSLFAT

Reference: article PMC10152145
